According to doi:10.1101/2020.03.16.994293:
These are yes or no findings as the source states them, for the method shown. In cells and extracts the contact can be indirect. Some binding calls cover weakened binding; strength is not graded here.

Sequences of proteins named here, by UniProt entry; tags and fusion partners are left off.
UniProt P46938: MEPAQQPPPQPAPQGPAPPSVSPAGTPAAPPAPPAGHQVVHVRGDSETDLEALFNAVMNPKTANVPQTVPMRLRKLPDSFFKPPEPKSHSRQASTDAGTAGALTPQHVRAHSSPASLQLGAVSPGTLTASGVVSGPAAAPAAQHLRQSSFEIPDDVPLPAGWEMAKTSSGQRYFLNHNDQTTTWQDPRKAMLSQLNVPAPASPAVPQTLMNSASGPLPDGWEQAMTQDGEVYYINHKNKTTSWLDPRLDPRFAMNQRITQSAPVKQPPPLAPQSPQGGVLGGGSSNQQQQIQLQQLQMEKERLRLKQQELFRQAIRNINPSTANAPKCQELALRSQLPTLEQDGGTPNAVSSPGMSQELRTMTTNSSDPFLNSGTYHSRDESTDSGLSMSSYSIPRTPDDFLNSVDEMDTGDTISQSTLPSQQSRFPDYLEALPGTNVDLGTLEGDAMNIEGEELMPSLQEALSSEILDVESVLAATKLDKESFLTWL

Target: T1, VE-cadherin (mouse (endogenous in mouse brain endothelial cells)) (UniProt P55284)
T1 sequence: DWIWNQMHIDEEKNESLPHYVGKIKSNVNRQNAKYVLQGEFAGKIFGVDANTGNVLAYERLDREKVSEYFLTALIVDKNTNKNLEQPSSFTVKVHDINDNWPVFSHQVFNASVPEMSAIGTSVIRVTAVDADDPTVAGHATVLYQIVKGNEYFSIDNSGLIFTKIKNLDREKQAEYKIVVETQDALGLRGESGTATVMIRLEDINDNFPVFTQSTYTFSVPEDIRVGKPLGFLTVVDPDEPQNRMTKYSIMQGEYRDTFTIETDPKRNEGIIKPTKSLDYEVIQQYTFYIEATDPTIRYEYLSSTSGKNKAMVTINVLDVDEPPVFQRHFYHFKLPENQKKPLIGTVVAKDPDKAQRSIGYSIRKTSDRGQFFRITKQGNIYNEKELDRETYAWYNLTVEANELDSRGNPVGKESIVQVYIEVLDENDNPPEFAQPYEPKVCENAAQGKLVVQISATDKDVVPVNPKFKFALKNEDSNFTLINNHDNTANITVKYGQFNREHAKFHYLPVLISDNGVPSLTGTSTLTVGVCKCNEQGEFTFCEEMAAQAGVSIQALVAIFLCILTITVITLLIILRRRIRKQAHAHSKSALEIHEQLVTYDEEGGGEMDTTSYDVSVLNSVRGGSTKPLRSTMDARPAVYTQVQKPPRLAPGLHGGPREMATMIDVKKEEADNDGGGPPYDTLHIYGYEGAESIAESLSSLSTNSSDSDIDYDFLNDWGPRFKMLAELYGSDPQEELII
Assay: co-IP

- binding: binds
Substance: yes-associated protein (YAP) (from UniProt P46938 1-488)
